These results are taken from patent publication US20250042995A1 (AKESO BIOPHARMA, published 2025).

These are yes or no findings as the source states them, for the method shown. Some entries that bind do so weakly or less than the wild type.

The assay has as its target T1, human LAG3-mFc (human, UniProt P18627 23-450).
T1 construct: also called antigen human LAG3-mFc; not shown: mFc: Fc protein fragment of mouse IgG
T1 sequence (looked up): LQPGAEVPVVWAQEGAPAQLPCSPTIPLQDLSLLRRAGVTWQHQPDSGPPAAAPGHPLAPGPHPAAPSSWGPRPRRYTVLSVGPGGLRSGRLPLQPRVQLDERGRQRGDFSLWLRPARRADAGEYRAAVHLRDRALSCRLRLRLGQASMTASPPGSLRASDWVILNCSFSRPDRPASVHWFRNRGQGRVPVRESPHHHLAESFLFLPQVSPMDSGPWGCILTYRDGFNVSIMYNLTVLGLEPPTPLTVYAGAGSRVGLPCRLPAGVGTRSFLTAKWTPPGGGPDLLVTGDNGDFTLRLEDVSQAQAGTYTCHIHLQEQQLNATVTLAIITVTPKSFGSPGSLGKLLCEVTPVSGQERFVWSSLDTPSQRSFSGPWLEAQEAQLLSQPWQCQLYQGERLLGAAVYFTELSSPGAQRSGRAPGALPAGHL
As to the kind of experiment: ELISA.

B1: H7L9(hG4WT) (antibody, human IgG4 S228P, kappa, V domains shown)
VH: QVQLQQWGAGLLKPSETLSLTCAVYGGSISDYYWNWIRQPPGKGLEWIGEINHRGTTNSNPSLKSRVTLSLDTSKNQFSLKLRSVTAADTAVYYCAFGYSDYEYDWFDPWGQGTLVTVSS
VL: EIVLTQSPATLSLSPGERATLSCRASQTISSYLAWYQQKPGQAPRLLIYDGSNRATGIPARFSGSGSGTDFTLTISSLEPEDFAVYYCQQRSNWPLTFGQGTNLEIKR
notes: Humanized anti-LAG3 IgG4 (Ig gamma-4 chain C region) with human kappa constant region
With B1, the binding entry is given as “binds”.
